Measurements reported in PubChem BioAssay AID652272 (Drosophila RNAi Screening Center, 2013).

Screen: 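Genes whose knock-down decreases or increases Hedgehog reporter output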 (primary screen)
Cell system: Drosophila clone 8 (Cl8) cells
Knock-down reagent: long dsRNA against Drosophila genes
Measurement: 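Firefly light from a Hedgehog-responsive ptc promoter reporter and Renilla reference light, both read on a plate reader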
Direction: firefly Hh reporter signal: higher = more ptc reporter light; Renilla reference signal: higher = more Renilla control light
Hit rule: 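Hit when the z-score averaged over two replicates is under -2 or over +3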
Calls: active = hit: reporter lowered or raised; inactive = not a hit
The screen tested about 21,000 reagents; below is an unselected part of those that have a named target and a result. In the full data, 503 (2.4%) were called active. 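Raw plate light values, not normalised; calls rest on replicate z-scores that were not deposited; hits include reporter decreases as well as increases.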 The numbers tell different reagents against one gene apart. The record does not give: the amount of reagent, the time to read-out.

meigo (medial glomeruli) → firefly Hh reporter signal, replicate 1 = 4.70e5; firefly Hh reporter signal, replicate 2 = 63648; Renilla reference signal, replicate 1 = 30872; Renilla reference signal, replicate 2 = 438; Call = inactive
CG12155 → firefly Hh reporter signal, replicate 1 = 1.07e5; firefly Hh reporter signal, replicate 2 = 68468; Renilla reference signal, replicate 1 = 2731; Renilla reference signal, replicate 2 = 1505; Call = inactive
CG7655 → firefly Hh reporter signal, replicate 1 = 1.62e5; firefly Hh reporter signal, replicate 2 = 65162; Renilla reference signal, replicate 1 = 7275; Renilla reference signal, replicate 2 = 2729; Call = inactive
CG31183 #1 → firefly Hh reporter signal, replicate 1 = 69540; firefly Hh reporter signal, replicate 2 = 69172; Renilla reference signal, replicate 1 = 1990; Renilla reference signal, replicate 2 = 1904; Call = inactive
CG31183 #2 → firefly Hh reporter signal, replicate 1 = 1.13e5; firefly Hh reporter signal, replicate 2 = 74736; Renilla reference signal, replicate 1 = 3928; Renilla reference signal, replicate 2 = 3040; Call = inactive
eff (effete) → firefly Hh reporter signal, replicate 1 = 55988; firefly Hh reporter signal, replicate 2 = 53091; Renilla reference signal, replicate 1 = 4533; Renilla reference signal, replicate 2 = 2616; Call = active
ctp (cut up) → firefly Hh reporter signal, replicate 1 = 1.49e5; firefly Hh reporter signal, replicate 2 = 81085; Renilla reference signal, replicate 1 = 2904; Renilla reference signal, replicate 2 = 1789; Call = inactive
Or92a (Odorant receptor 92a) → firefly Hh reporter signal, replicate 1 = 5.11e5; firefly Hh reporter signal, replicate 2 = 93306; Renilla reference signal, replicate 1 = 28357; Renilla reference signal, replicate 2 = 2509; Call = inactive
CG2694 → firefly Hh reporter signal, replicate 1 = 1.24e5; firefly Hh reporter signal, replicate 2 = 1.09e5; Renilla reference signal, replicate 1 = 2658; Renilla reference signal, replicate 2 = 3820; Call = inactive
Mhcl (Myosin heavy chain-like) #1 → firefly Hh reporter signal, replicate 1 = 44512; firefly Hh reporter signal, replicate 2 = 1.86e5; Renilla reference signal, replicate 1 = 8561; Renilla reference signal, replicate 2 = 3114; Call = inactive
Mhcl (Myosin heavy chain-like) #2 → firefly Hh reporter signal, replicate 1 = 79820; firefly Hh reporter signal, replicate 2 = 83377; Renilla reference signal, replicate 1 = 2801; Renilla reference signal, replicate 2 = 5657; Call = inactive
Mhcl (Myosin heavy chain-like) #3 → firefly Hh reporter signal, replicate 1 = 83028; firefly Hh reporter signal, replicate 2 = 72020; Renilla reference signal, replicate 1 = 2659; Renilla reference signal, replicate 2 = 4896; Call = inactive
Gapdh2 (Glyceraldehyde 3 phosphate dehydrogenase 2) → firefly Hh reporter signal, replicate 1 = 78368; firefly Hh reporter signal, replicate 2 = 1.06e5; Renilla reference signal, replicate 1 = 2172; Renilla reference signal, replicate 2 = 5961; Call = inactive
CG14566 → firefly Hh reporter signal, replicate 1 = 1.45e5; firefly Hh reporter signal, replicate 2 = 1.48e5; Renilla reference signal, replicate 1 = 5132; Renilla reference signal, replicate 2 = 19510; Call = inactive
Prosbeta5 (Proteasome beta5 subunit) → firefly Hh reporter signal, replicate 1 = 65158; firefly Hh reporter signal, replicate 2 = 40308; Renilla reference signal, replicate 1 = 2454; Renilla reference signal, replicate 2 = 4291; Call = active
CG8939 → firefly Hh reporter signal, replicate 1 = 92506; firefly Hh reporter signal, replicate 2 = 60540; Renilla reference signal, replicate 1 = 3113; Renilla reference signal, replicate 2 = 1861; Call = inactive
Sox21b #1 → firefly Hh reporter signal, replicate 1 = 1.05e5; firefly Hh reporter signal, replicate 2 = 2.55e5; firefly Hh reporter signal, replicate 3 = 68263; Renilla reference signal, replicate 1 = 3936; Renilla reference signal, replicate 2 = 17008; Call = inactive
Sox21b #2 → firefly Hh reporter signal, replicate 1 = 26848; Renilla reference signal, replicate 1 = 3341; Renilla reference signal, replicate 2 = 1157; Call = active
CG33309 → firefly Hh reporter signal, replicate 1 = 97456; firefly Hh reporter signal, replicate 2 = 2.26e5; Renilla reference signal, replicate 1 = 2775; Renilla reference signal, replicate 2 = 9696; Call = inactive
fz3 (frizzled 3) → firefly Hh reporter signal, replicate 1 = 76336; firefly Hh reporter signal, replicate 2 = 1.77e5; Renilla reference signal, replicate 1 = 2813; Renilla reference signal, replicate 2 = 6768; Call = inactive
CG32277 → firefly Hh reporter signal, replicate 1 = 73992; firefly Hh reporter signal, replicate 2 = 56330; Renilla reference signal, replicate 1 = 2406; Renilla reference signal, replicate 2 = 3637; Call = inactive
insv (insensitive) → firefly Hh reporter signal, replicate 1 = 93275; firefly Hh reporter signal, replicate 2 = 78843; Renilla reference signal, replicate 1 = 2137; Renilla reference signal, replicate 2 = 1968; Call = inactive
S6k (Ribosomal protein S6 kinase) → firefly Hh reporter signal, replicate 1 = 68018; firefly Hh reporter signal, replicate 2 = 81531; Renilla reference signal, replicate 1 = 6965; Renilla reference signal, replicate 2 = 5499; Call = inactive
Jon99Cii (Jonah 99Cii) → firefly Hh reporter signal, replicate 1 = 1.43e5; firefly Hh reporter signal, replicate 2 = 1.82e5; Renilla reference signal, replicate 1 = 5024; Renilla reference signal, replicate 2 = 5892; Call = inactive
CG7768 → firefly Hh reporter signal, replicate 1 = 71801; firefly Hh reporter signal, replicate 2 = 42896; Renilla reference signal, replicate 1 = 2881; Renilla reference signal, replicate 2 = 1528; Call = inactive
Ho (Heme oxygenase) → firefly Hh reporter signal, replicate 1 = 1.24e5; firefly Hh reporter signal, replicate 2 = 81805; Renilla reference signal, replicate 1 = 4811; Renilla reference signal, replicate 2 = 3213; Call = inactive
Uev1A (Ubiquitin-conjugating enzyme variant 1A) → firefly Hh reporter signal, replicate 1 = 1.74e5; firefly Hh reporter signal, replicate 2 = 1.08e5; Renilla reference signal, replicate 1 = 6899; Renilla reference signal, replicate 2 = 4361; Call = inactive
